The target in the assay is cartilage oligomeric matrix protein (human (endogenous in hBMFs)) (UniProt P49747). The experiment in a line: co-IP; hBMFs treated with arecoline (10 μg/mL) or PBS and exocytosis inhibitor EXO1 for 24 h; NP40 whole cell lysate, 2 mg protein; magnetic beads coupled with target antibodies, IgG-coupled beads as control; 4 °C overnight; washed with TBST three times; which antibody was on the beads is not ….

By UniProt entry, the sequences of proteins in these tests, tags left out. Residues count along the entry.
UniProt P49747, residues 21-757: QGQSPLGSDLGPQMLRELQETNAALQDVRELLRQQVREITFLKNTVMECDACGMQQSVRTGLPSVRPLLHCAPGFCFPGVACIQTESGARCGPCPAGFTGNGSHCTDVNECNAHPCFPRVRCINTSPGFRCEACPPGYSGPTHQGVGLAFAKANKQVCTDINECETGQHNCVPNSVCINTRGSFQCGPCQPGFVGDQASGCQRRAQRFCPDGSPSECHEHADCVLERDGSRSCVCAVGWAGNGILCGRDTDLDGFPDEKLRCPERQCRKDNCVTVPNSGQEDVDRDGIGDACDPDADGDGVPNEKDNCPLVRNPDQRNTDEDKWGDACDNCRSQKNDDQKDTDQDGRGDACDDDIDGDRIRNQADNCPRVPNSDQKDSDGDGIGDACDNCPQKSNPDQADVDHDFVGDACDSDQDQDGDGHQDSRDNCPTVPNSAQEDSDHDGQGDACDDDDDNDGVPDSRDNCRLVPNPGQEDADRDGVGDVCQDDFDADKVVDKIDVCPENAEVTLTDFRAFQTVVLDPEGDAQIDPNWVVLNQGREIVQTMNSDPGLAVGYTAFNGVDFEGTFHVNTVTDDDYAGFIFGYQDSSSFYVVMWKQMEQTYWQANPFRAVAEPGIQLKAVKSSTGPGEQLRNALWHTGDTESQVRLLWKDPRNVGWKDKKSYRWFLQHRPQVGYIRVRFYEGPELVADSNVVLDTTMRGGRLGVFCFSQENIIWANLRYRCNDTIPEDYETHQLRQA
UniProt Q05707, residues 29-1796: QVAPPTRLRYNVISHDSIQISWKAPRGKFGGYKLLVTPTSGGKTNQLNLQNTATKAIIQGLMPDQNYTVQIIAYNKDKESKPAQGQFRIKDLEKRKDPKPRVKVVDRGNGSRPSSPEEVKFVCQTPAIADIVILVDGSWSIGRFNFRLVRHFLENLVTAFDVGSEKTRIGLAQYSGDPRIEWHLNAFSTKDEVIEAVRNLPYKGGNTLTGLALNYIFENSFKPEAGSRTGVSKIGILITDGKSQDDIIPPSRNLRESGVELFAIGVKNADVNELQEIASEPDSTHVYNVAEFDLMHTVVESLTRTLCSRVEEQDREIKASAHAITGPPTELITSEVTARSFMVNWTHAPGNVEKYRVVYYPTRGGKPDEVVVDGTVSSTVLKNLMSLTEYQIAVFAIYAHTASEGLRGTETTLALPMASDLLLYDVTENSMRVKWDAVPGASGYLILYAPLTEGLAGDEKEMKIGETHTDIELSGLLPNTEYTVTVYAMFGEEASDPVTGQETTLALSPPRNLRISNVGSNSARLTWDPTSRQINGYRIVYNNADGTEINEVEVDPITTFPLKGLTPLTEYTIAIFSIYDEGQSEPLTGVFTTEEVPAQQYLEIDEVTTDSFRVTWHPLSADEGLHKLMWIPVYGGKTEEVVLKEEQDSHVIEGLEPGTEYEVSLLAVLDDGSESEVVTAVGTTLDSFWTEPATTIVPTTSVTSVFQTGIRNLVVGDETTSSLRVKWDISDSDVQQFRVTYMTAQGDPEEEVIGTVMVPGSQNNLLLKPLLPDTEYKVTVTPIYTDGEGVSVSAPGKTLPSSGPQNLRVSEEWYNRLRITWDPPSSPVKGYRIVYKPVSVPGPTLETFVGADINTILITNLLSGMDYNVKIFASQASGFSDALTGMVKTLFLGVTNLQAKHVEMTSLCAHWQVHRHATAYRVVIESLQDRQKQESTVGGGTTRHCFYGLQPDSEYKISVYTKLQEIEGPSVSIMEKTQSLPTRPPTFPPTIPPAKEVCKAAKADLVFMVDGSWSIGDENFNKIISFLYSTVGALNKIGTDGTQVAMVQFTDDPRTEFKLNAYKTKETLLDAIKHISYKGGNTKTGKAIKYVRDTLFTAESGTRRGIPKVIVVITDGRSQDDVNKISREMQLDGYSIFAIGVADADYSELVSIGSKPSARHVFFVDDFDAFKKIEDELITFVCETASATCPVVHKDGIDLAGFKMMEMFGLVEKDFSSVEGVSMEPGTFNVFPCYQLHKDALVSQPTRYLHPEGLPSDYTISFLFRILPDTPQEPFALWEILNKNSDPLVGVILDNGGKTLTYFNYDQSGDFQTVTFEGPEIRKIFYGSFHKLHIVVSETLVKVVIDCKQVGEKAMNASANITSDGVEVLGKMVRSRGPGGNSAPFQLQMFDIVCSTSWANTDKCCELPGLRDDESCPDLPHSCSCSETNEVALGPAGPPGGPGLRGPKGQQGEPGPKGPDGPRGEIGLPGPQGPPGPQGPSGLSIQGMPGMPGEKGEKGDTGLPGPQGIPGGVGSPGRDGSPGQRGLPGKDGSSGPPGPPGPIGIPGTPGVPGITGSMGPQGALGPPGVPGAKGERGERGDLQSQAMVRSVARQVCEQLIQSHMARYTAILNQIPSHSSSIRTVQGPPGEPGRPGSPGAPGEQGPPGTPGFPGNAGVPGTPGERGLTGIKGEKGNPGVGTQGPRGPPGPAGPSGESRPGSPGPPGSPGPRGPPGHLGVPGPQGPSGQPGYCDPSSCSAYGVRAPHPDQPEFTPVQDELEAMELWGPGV

Results are given in words; binding and its absence hold for the method and conditions named. Binding seen in cells or lysates may run through a third protein. Some results given as binding are weak or reduced against the parent protein; the word gives no strength.

Consider “collagen XIV (from UniProt Q05707 29-1796)”, for which the binding result was “binds”.

The record behind these values is paper PMC11950347.
